No constants are given. Whether binding was seen depends on the method and setting. Binding seen in cells or lysates may run through a third protein. Some binding calls cover weakened binding; strength is not graded here. Sequences can lack the tags named with a protein.
Columns and labels:
HA-tagged mGBP5 (mouse) = molecular target: T1, HA-tagged mGBP5 (mouse) (UniProt Q8CFB4); assay: co-IP
T1 sequence: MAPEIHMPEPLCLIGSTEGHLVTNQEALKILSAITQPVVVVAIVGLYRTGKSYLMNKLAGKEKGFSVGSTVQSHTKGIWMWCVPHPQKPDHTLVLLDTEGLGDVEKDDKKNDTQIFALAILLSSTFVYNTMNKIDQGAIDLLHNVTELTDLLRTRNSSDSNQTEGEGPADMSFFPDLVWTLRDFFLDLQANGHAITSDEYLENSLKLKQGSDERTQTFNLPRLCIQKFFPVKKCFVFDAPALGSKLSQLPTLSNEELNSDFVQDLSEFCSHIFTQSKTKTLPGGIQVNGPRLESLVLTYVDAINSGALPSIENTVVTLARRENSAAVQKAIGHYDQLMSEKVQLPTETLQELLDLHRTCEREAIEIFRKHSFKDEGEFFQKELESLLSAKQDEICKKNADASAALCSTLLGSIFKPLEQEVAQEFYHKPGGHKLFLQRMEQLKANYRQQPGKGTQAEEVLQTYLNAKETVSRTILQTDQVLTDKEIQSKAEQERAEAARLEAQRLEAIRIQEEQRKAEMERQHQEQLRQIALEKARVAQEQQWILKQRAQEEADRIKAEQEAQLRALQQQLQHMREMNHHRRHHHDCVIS

HA-tagged mGBP2 (mouse) = molecular target: T2, HA-tagged mGBP2 (mouse) (UniProt Q9Z0E6); assay: co-IP
T2 sequence: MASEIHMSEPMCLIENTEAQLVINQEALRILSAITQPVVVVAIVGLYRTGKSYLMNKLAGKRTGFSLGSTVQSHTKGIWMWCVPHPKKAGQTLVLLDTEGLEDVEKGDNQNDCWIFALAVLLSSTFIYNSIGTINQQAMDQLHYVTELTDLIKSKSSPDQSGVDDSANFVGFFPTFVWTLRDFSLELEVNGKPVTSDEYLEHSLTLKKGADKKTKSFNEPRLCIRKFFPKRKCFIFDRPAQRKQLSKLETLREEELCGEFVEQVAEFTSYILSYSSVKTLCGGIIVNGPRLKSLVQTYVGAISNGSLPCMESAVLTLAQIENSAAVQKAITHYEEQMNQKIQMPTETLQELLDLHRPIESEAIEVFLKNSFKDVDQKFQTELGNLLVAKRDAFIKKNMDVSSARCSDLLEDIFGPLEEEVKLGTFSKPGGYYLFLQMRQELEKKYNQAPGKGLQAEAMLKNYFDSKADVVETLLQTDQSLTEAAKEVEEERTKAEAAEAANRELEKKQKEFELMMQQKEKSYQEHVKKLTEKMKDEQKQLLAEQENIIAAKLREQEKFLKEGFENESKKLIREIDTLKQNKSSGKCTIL

B1: FLAG-tagged mGBP1 wild-type protein (murine guanylate-binding protein 1) (protein, UniProt Q01514 1-589)
chain: MASEIHMSEPMCLIENTEAQLVINQEALRILSAITQPVVVVAIVGLYRTGKSYLMNKLAGKRTGFSLGSTVQSHTKGIWMWCVPHPKKAGQTLVLLDTEGLEDVEKGDNQNDCWIFALAVLLSSTFIYNSIGTINQQAMDQLHYVTELTDLIKSKSSPDQSDVDNSANFVGFFPIFVWTLRDFSLDLEFDGESITPDEYLETSLALRKGTDENTKKFNMPRLCIRKFFPKRKCFIFDRPGDRKQLSKLEWIQEDQLNKEFVEQVAEFTSYIFSYSGVKTLSGGITVNGPRLKSLVQTYVSAICSGELPCMENAVLTLAQIENSAAVQKAITYYEEQMNQKIHMPTETLQELLDLHRTCEREAIEVFMKNSFKDVDQKFQEELGAQLEAKRDAFVKKNMDMSSAHCSDLLEGLFAHLEEEVKQGTFYKPGGYYLFLQRKQELEKKYIQTPGKGLQAEVMLRKYFESKEDLADTLLKMDQSLTEKEKQIEMERIKAEAAEAANRALAEMQKKHEMLMEQKEQSYQEHMKQLTEKMEQERKELMAEQQRIISLKLQEQERLLKQGFQNESLQLRQEIEKIKNMPPPRSCTIL
HA-tagged mGBP5 (mouse)
  binding: binds
HA-tagged mGBP2 (mouse)
  binding: binds
